Our source for the binding values is publication PMC8255133.

Protein sequences, listed by entry. Tags and fused reporters are not part of them.
UniProt P11531: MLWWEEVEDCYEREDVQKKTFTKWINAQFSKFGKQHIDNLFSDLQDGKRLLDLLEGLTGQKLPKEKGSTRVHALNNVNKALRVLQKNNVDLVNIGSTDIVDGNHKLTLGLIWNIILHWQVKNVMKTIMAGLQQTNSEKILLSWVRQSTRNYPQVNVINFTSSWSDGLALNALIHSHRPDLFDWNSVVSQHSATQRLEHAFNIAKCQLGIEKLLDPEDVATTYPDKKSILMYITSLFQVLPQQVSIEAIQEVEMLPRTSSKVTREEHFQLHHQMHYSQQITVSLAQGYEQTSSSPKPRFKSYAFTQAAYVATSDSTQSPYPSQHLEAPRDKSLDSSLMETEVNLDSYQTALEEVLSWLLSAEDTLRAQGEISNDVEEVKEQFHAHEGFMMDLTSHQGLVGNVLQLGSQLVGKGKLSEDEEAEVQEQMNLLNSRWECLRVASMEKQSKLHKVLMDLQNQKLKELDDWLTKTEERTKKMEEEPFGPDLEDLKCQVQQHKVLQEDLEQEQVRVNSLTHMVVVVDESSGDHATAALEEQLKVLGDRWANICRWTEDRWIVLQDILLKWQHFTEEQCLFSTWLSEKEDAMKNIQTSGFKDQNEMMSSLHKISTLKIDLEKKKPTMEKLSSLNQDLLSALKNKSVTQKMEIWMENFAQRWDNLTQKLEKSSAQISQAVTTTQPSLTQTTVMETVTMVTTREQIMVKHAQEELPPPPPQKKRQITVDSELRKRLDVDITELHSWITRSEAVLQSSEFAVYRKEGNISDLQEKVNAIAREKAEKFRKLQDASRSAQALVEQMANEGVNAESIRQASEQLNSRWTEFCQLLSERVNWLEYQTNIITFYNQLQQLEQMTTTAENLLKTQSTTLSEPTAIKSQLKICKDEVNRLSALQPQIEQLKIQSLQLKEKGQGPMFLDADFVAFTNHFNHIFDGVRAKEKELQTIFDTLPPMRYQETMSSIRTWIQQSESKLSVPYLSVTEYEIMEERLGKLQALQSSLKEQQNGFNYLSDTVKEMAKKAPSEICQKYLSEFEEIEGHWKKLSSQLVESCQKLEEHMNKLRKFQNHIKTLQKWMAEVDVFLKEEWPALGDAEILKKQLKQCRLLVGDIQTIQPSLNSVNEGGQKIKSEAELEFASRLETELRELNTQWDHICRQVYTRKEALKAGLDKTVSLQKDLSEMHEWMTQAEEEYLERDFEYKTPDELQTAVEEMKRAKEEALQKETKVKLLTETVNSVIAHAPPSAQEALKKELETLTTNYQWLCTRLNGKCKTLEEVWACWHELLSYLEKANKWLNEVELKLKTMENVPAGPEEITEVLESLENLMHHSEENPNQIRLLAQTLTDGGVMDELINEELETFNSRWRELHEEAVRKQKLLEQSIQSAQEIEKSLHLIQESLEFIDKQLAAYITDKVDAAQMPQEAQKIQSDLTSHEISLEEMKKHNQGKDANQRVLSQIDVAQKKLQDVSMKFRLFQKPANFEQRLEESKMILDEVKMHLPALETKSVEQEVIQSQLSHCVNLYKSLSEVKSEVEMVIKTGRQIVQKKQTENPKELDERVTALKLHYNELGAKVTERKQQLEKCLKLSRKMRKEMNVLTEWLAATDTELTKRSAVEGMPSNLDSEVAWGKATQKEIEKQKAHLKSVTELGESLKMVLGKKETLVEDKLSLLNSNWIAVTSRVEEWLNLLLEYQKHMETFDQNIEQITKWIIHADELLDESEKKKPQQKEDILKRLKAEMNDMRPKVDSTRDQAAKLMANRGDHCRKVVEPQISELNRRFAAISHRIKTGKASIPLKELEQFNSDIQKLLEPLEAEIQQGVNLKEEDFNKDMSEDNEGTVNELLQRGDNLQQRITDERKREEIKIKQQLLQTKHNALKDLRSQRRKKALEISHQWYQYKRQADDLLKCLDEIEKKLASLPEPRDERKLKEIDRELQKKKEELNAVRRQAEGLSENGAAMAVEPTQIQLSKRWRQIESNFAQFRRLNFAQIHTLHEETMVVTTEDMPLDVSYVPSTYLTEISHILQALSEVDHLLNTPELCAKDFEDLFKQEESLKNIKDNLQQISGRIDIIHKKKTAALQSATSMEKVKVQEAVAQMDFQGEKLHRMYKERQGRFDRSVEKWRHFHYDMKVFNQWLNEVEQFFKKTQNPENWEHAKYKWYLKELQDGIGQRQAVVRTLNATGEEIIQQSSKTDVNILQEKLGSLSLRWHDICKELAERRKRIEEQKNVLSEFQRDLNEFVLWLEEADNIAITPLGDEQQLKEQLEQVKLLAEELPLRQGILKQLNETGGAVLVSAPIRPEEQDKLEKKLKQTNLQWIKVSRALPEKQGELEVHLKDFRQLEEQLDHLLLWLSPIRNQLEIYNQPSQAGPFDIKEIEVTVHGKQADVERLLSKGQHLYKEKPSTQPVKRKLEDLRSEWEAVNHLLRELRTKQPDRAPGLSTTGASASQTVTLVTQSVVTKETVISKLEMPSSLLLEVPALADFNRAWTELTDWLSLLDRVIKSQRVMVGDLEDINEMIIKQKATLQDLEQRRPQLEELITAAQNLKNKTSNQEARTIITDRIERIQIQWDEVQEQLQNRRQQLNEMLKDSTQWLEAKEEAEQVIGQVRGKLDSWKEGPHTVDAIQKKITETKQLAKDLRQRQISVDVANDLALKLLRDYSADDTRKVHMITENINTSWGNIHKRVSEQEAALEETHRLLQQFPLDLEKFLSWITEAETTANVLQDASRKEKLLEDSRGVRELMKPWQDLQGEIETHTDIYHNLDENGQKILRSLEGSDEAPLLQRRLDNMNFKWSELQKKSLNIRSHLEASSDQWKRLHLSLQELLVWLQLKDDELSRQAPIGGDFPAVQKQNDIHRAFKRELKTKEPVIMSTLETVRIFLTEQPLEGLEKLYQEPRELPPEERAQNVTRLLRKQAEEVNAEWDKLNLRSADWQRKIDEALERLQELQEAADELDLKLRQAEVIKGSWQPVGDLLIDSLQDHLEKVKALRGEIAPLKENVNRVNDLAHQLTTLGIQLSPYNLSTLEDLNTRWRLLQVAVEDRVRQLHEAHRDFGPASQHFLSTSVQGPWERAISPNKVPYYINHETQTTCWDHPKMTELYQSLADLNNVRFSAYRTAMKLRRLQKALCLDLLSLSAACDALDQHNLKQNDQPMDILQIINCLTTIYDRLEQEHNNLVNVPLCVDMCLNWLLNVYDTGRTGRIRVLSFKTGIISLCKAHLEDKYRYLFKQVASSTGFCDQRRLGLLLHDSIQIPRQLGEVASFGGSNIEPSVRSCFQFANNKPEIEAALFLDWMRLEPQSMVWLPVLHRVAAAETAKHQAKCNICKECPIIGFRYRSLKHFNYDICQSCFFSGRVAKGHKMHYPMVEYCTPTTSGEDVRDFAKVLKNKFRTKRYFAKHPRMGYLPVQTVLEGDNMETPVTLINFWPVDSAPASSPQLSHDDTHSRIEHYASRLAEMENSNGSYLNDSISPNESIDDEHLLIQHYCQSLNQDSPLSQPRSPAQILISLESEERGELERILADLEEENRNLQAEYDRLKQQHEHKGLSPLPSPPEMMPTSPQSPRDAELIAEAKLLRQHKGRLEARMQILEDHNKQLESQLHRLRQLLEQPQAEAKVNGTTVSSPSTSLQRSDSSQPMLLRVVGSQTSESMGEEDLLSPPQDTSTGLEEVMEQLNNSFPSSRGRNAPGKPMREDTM
UniProt P68368: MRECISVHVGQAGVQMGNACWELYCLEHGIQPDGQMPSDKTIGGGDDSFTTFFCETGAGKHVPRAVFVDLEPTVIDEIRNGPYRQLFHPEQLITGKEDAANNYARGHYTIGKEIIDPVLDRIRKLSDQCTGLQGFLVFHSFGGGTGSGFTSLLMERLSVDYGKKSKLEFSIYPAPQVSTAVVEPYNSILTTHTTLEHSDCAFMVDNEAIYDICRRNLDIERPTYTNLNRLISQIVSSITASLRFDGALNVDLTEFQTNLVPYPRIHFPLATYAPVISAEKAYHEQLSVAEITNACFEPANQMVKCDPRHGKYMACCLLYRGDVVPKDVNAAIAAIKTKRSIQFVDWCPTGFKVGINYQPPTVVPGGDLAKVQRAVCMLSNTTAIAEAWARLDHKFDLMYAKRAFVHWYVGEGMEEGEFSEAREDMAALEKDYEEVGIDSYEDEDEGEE
UniProt Q9Z0J4: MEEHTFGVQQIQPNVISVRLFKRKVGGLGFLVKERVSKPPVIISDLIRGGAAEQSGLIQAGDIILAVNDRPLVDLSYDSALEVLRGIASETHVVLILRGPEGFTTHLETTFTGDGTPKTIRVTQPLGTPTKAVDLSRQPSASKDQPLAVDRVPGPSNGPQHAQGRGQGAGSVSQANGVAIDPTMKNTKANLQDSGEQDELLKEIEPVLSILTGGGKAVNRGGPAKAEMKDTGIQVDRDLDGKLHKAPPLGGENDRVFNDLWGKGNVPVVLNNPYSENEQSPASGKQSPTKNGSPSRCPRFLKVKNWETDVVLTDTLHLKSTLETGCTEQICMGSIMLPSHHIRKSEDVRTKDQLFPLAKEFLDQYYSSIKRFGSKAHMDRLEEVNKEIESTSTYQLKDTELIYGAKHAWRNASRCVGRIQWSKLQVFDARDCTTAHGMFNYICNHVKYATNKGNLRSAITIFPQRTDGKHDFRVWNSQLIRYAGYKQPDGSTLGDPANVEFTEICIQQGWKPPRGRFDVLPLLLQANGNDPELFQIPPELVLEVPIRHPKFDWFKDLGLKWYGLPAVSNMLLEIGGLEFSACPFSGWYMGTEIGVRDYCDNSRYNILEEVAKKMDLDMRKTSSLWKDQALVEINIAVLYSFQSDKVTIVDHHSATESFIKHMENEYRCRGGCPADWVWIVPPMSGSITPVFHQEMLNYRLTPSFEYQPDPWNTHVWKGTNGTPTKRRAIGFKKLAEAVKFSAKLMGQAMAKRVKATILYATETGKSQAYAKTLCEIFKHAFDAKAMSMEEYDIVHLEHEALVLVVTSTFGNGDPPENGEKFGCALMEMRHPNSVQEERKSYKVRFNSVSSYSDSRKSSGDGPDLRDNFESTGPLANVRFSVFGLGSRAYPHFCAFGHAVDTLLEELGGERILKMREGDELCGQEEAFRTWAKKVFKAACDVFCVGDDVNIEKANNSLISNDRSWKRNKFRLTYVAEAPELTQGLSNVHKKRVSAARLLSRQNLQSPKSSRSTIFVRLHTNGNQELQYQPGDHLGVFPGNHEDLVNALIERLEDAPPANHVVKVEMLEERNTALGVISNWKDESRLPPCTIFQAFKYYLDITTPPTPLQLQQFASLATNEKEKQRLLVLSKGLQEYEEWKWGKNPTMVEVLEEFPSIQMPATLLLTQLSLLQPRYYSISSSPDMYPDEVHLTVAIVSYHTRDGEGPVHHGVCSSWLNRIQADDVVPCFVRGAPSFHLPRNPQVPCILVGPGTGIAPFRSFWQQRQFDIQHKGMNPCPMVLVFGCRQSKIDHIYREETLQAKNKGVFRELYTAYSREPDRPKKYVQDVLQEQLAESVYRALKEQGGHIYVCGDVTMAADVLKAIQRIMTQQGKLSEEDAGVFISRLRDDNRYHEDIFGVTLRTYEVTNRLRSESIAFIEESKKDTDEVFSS

Results are given in words; binding and its absence hold for the method and conditions named. In cells and extracts the contact can be indirect. Here binding means that the protein was enriched with, or labelled near, the bait; the list need not be complete. For some of these results: A no says only that the protein was not detected with the bait.

B1: β2-syntrophin, Q61235 1-520 (protein)
chain: MAVWTRATKAGLVELLLRERWVRVVAELSGESLSLTGDAAAVEPEPPAAAFNGLPNGGGGESLPGSPNRGLGPPSPPAPPRGPAGEASASPPVRRVRVVKQEAGGLGISIKGGRENRMPILISKIFPGLAADQSRALRLGDAILSVNGTDLRQATHDQAVQALKRAGKEVLLEVKFIREVTPYIKKPSLVSDLPWEGASPQSPSFSGSEDSGSPKHQNTTKDRKVIPLKMCFAARNLSMPDLENRLIELHSPDSRNTLILRCKDTATAHSWFVAIHTNIMALLPQVLAELNAMLGATSTAGGSKEVKHIAWLAEQAKLDGGRQQWRPVLMAVTEKDLLLYDCMPWTRDAWASPCHSYPLVATRLVHSGSGCRSPSLGSDLTFATRTGSRQGIEMHLFRVETHRDLSTWTRILVQGCHAAAELIKEVSLGCTLSGQEVRFTVHYEHGFTITRDNGGASSILYRYPFERLKMSADDGIRNLYLDFGGPEGELTMDLHSCPKPIVFVLHTFLSAKVTRMGLLV
B2: cavin-4 (protein, UniProt A2AMM0 1-362)
chain: MEHNGSASNAGKIHQNRLSSVTEDEDQDAALTIVTVLDRVASVVDSVQASQKRIEERHREMGNAIKSVQIDLLKLSQSHSNTGYVVNKLFEKTRKVSAHIKDVKARVEKQQVRVTKVETKQEEIMKKNKFRVVIFQEDIPCPASLSVVKDRSLPENQEEAEEVFDPPIELSSDEEYYVEESRSARLRKSGKEHIDHIKKAFSRENMQKTRQTLDKKVSGIRTRIVTPERRERLRQSGERLRQSGERLRQSGERFKKSISSAAPSKEAFKIRSLRKAKDPKAEGQEVDRGMGVDIISGSLALGPIHEFHSDEFSETEKEVTKGGYSPQEGGDPPTPEPLKVTFKPQVRVEDDESLLLELKQSS
B3: α1-syntrophin (protein, UniProt Q61234 1-503)
chain: MASGRRAPRTGLLELRCGAGSGAGGERWQRVLLSLAEDALTVSPADGEPGPEPEPAQLNGAAEPGAAPPQLPEALLLQRRRVTVRKADAGGLGISIKGGRENKMPILISKIFKGLAADQTEALFVGDAILSVNGEDLSSATHDEAVQALKKTGKEVVLEVKYMKEVSPYFKNSAGGTSVGWDSPPASPLQRQPSSPGPQPRNLSEAKHVSLKMAYVSRRCTPTDPEPRYLEICAADGQDAVFLRAKDEASARSWAGAIQAQIGTFIPWVKDELQALLTATGTAGSQDIKQIGWLTEQLPSGGTAPTLALLTEKELLFYCSLPQSREALSRPTRTAPLIATSSAHRLVHSGPSKGSVPYDAELSFALRTGTRHGVDTHLFSVESPQELAAWTRQLVDGCHRAAEGIQEVSTACTWNGRPCSLSVHIDKGFTLWAAEPGAARAMLLRQPFEKLQMSSDDGTSLLFLDFGGAEGEIQLDLHSCPKTMVFIIHSFLSAKVTRLGLLA
B4: cavin-3 (protein, UniProt Q91VJ2 1-260)
chain: MGESALEPGPVPETPAGGPVHAVTVVTLLEKLATMLEALRERQGGLAERQGGLAGSVRRIQSGLGALSRSHDTTSNTLTQLLAKAERVGSHADAAQERAVRRAAQVQRLEANHGLLVARGKLHVLLFKEETEIPARAFQKVPELLGPEDQLVLGPDQPEDEVGESSEEEPVESRAQRLRRTGLQKVQSLKRALSSRKAAQPTPVKPPRVGPVRSSEGPSEGQPAAQPEMESELETALEPEPPQPTKEDPEKPVLQIESAA
B5: caveolin-3 (protein, UniProt P51637 1-151)
chain: MMTEEHTDLEARIIKDIHCKEIDLVNRDPKNINEDIVKVDFEDVIAEPEGTYSFDGVWKVSFTTFTVSKYWCYRLLSTLLGVPLALLWGFLFACISFCHIWAVVPCIKSYLIEIQCISHIYSLCIRTFCNPLFAALGQVCSNIKVVLRREG
B6: cavin-2 (protein, UniProt Q63918 1-418)
chain: MGEDAAQAEKFQHPNTDMLQEKPSSPSPMPSSTPSPSLNLGSTEEAIRDNSQVNAVTVHTLLDKLVNMLDAVRENQHNMEQRQINLEGSVKGIQNDLTKLSKYQASTSNTVSKLLEKSRKVSAHTRAVRERLERQCVQVKRLENNHAQLLRRNHFKVLIFQEESEIPASVFVKEPVPSAAEGKEELADENKSLEETLHNVDLSSDDELPRDEEALEDSAEEKMEESRAEKIKRSSLKKVDSLKKAFSRQNIEKKMNKLGTKIVSVERREKIKKSLTPNHQKASSGKSSPFKVSPLSFGRKKVREGESSVENETKLEDQMQEDREEGSFTEGLSEASLPSGLMEGSAEDAEKSARRGNNSAVGSNADLTIEEDEEEEPVALQQAQQVRYESGYMLNSEEMEEPSEKQVQPAVLHVDQTA
B7: cavin-1 (full-length) (protein, UniProt O54724 1-392)
chain: MEDVTLHIVERPYSGFPDASSEGPEPTQGEARATEEPSGTGSDELIKSDQVNGVLVLSLLDKIIGAVDQIQLTQAQLEERQAEMEGAVQSIQGELSKLGKAHATTSNTVSKLLEKVRKVSVNVKTVRGSLERQAGQIKKLEVNEAELLRRRNFKVMIYQDEVKLPAKLSVSKSLKESEALPEKEGDELGEGERPEDDTAAIELSSDEAVEVEEVIEESRAERIKRSGLRRVDDFKKAFSKEKMEKTKVRTRENLEKTRLKTKENLEKTRHTLEKRMNKLGTRLVPVERREKLKTSRDKLRKSFTPDHVVYARSKTAVYKVPPFTFHVKKIREGEVEVLKATEMVEVGPEDDEVGAERGEATDLLRGSSPDVHTLLEITEESDAVLVDKSDSD

One test has as its target dystrophin (full-length) (mouse (endogenous in heart)), P11531. Description: affinity purification with mass spectrometry; MANEX1011B IPs of dystrophin from wild-type hearts (N = 3) and of μDys from μDYS-mdx^5cv hearts (N = 3), protein identification by MS, label-free emPAI; proteins found in control IPs (mdx^5cv, N = 3; MW8 on wild-type, N = 1) excluded. To be noted: remark: other sources report otherwise.
For B1, the binding result is on record as “binds”.

The target in a further test is dystrophin (full-length) (mouse (endogenous in heart)) (UniProt P11531). Described as above.
Conditions: not given
In the case of tubulin α4A (from UniProt P68368 1-448), the binding entry is “no binding”. The same measure, in the same setting: with “neuronal nitric oxide synthase (from UniProt Q9Z0J4 1-1429) (enzyme)” the entry was “no binding”; with Ahnak1 (from UniProt E9Q616 1-5656), “binds”. On the same count and under the same terms, with B2 the entry was “binds”; with B3, “binds”; with B4, “binds”. Turning to B5, the binding entry is “no binding”. Same read-out and setting: to B6 belongs “binds”; to B7, “binds”.
